Test results published in patent WO2019216345A1.
These are yes or no findings as the source states them, for the method shown. Binding calls can cover weak binding; strength is not graded here. Tags and fused reporters may be left off the sequences shown.

Biological target: Myc-drebrin A
Assay: Western blot, extract of HEK293 cells expressing Myc-drebrin A, binder as primary antibody, HRP-labeled anti-human IgG antibody

B1: Drebrin-binding peptide-human IgG Fc fusion antibody in which #1 peptide is fused with the Fc region of human IgG antibody (#1Fc antibody) (Fc fusion, not shown: a dimerising Fc or GST)
chain: QVQLVESGGGLVRAGGSLRLSCAATGRTFSAYTMGWFRQAPGKEREFVAAVTRSSTSTYYAGSVKGRFTISRDNAKNMVYLQMNNLEPEDTAVYYCHARRPSTTGHWGQGTQVTVSSEPKTPKPQSA
- binding: binds
